Experimental data from PubChem BioAssay AID1487 (National Center for Advancing Translational Sciences (NCATS), 2009).
This is one part of the list. Shown are side measurements of this screen, not its main read-out; they come without a call. The list favours compounds with an active or inconclusive main result. Words in brackets tell the shape of the fitted curve; partial curves, single points and poor fits give uncertain potencies.

Experiment: qHTS Assay for Modulators of Lamin A Splicing
Conditions: HeLa LMNA splicing GFP/RFP minigene ratio, 48 h
Summary of the method: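 S3 HeLa cells stably expressing lamin A-EGFP splicing minigene plus DsRed2, 600 cells/well, 48 h compound exposure at 37C. Laser-scanning cytometry; analysed as GFP (500-530 nm)/RFP (575-640 nm) total intensity ratio; 0.5% DMSO vehicle.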

[1] = measured here: RFP viability control channel
[2] = measured here: GFP splicing reporter channel

| Structure (SMILES) | AC50 [1] | AC50 [2] |
| --- | --- | --- |
| COc1ccc(/C=C2\SC(=O)N(CCNC(=O)CCS(=O)(=O)c3ccc(C)cc3)C2=O)cc1 | 25.1 µM [rising, single point] | – |
| Cc1ccccc1NS(=O)(=O)c1ccc2[nH]cc(C(=O)NCCc3ccccc3)c(=O)c2c1 | – | 6.31 µM [rising, partial curve] |
| COC(=O)c1cnc(N2CCN(c3ccc(OC)cc3)CC2)c2ccccc12 | – | 0.178 µM [rising, full curve, poor fit] |
| CCN(CC)c1ccc(C(=O)N/N=C/c2ccccc2OC(F)F)cc1 | 35.5 µM [falling, single point] | – |
| Cc1nn(-c2ccccc2)c(C)c1C(=O)Nc1nnc(-c2ccco2)o1 | 10 µM [rising, partial curve, poor fit] | – |
| CCOC(=O)Nc1cccc(Nc2ccccc2)c1 | 20 µM [rising, partial curve, poor fit] | – |
| COc1ccc(-c2cc(=O)oc3cc(OCC(C)=O)ccc23)cc1 | 15.8 µM [rising, partial curve, poor fit] | – |
| O=C(Cc1ccccc1[N+](=O)[O-])NCc1ccc(Cl)cc1 | 10 µM [falling, single point] | – |
| Cc1nn(Cc2c(Cl)cccc2Cl)c(C)c1NC(=O)/C=C/c1cnn(C)c1C | – | 35.5 µM [falling, single point] |
| O=C1N=C(N2CCOCC2)SC1=C1CCCCC1 | 3.55 µM [rising, partial curve, poor fit] | 0.282 µM [rising, full curve, poor fit] |
| CC(C)C(Sc1nc(-c2ccccc2)cc(-c2ccccc2)c1C#N)C(=O)O (stereo not given) | 35.5 µM [falling, single point] | 35.5 µM [falling, single point] |
| NC(=S)NNc1ccnc2cc(Cl)ccc12 | – | 15.8 µM [falling, single point] |
| Cc1cccc2sc(NC(=O)CCNS(=O)(=O)c3cccc4nonc34)nc12 | 20 µM [rising, single point] | – |
| CCOC(=O)c1sc2nccc(N(C)C)c2c1N=CNOCc1c(F)cccc1Cl | 31.6 µM [rising, single point] | 17.8 µM [rising, single point] |
| O=C(Nc1nc2ccccc2s1)C1CC(=O)N(c2ccc(F)cc2)C1 (stereo not given) | 7.08 µM [rising, partial curve, poor fit] | – |
| CCCCCCOC(=O)c1ccccc1NC(=O)/C=C/C(=O)O | 0.0251 µM [falling, single point] | 0.0316 µM [falling, single point] |

As entered above.
Entry of Cc1nn(Cc2c(Cl)cccc2Cl)c(C)c1NC(=O)/C=C/c1cnn(C)c1C under AC50 [2]: 35.5 µM [falling, single point]
Entry of CCOC(=O)c1sc2nccc(N(C)C)c2c1N=CNOCc1c(F)cccc1Cl under AC50 [1]: 31.6 µM [rising, single point]
